The whole screen tested about 260,000 compounds, of which about 1,500 (0.58%) were called active. The shares of active, inactive and inconclusive entries below differ from those in the screen.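 Rule for the calls: active = inhibition above a set limit at one or more doses, reproduced on every date tested; inconclusive = results disagree between test dates, or hit never tested in dose response; inactive = the rest.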
target: Virion infectivity factor (Human immunodeficiency virus type 1 group M subtype B (isolate BH10)) + Virion infectivity factor (Human immunodeficiency virus type 1 group M subtype B (isolate BRU/LAI)) + Virion infectivity factor (Human immunodeficiency virus type 1 group M subtype B (isolate PCV12)) + Virion infectivity factor (Human immunodeficiency virus type 1 group M subtype B (isolate HXB2)) + DNA dC->dU-editing enzyme APOBEC-3G (Homo sapiens) (UniProt P69720+P69721+P69722+P69723+Q9HC16); test: inhibitors of Vif binding to APOBEC3G peptide, primary screen, biochemical, TR-FRET, GST-Vif 1-94, biotin-A3G peptide, dose response retest (AID 1117319); conditions: hits give high values;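 note: Vif residues 1-94 fused to GST binding biotinylated APOBEC3G peptide 110-148; 0% = full assay without inhibitor and 100% = GST in place of GST-Vif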

Sequences of proteins named here, by UniProt entry; tags and fusion partners are left off. A change or cut given only in a name is not applied to a line headed by its entry.
UniProt P69720: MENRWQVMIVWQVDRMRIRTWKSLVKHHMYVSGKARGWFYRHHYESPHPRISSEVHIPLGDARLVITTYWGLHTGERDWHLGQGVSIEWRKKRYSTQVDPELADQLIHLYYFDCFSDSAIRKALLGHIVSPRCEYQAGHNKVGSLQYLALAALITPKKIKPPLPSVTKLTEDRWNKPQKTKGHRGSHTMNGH
UniProt P69721: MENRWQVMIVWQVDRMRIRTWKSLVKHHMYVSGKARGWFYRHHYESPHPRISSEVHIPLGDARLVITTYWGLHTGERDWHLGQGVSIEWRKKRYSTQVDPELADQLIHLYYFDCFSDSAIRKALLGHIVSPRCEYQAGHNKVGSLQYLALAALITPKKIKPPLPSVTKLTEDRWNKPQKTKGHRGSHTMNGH
UniProt P69722: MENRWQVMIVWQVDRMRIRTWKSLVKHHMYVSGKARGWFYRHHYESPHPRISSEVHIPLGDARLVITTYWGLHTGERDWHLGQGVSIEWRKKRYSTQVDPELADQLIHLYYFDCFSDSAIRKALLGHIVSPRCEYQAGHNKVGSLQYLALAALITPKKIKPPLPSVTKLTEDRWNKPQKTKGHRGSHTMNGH
UniProt P69723: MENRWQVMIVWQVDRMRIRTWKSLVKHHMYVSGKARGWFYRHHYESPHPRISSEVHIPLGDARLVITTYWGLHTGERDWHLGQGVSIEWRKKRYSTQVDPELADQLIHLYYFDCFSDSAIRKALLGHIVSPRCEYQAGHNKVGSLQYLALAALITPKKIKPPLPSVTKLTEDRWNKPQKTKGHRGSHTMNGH
UniProt Q9HC16: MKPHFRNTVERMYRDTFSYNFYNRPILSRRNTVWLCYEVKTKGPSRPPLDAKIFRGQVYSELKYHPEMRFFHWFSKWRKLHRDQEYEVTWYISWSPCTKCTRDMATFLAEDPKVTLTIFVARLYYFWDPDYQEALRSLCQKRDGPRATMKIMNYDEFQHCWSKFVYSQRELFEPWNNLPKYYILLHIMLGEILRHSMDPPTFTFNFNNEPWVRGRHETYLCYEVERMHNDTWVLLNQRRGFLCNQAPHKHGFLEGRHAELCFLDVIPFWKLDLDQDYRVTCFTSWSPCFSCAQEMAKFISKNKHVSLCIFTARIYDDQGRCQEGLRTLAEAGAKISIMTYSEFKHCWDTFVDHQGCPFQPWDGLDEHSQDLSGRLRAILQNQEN

Row | SMILES | inhibition
1 | Cc1ccccc1N=C1c2cc([N+](=O)[O-])ccc2-c2ncccc21 | inconclusive: 35.3%
2 | NS(=O)(=O)c1ccc(CCNC(=O)CCCNC(=O)c2ccc(Cl)cc2)cc1 | inconclusive: 53%
3 | CN(C)c1ccc(N/C=C/C(=O)C(C)(C)C)cc1 | inconclusive: 45.2%
4 | CC(C)(C)NC(=O)NC(=O)CN1CCN(Cc2ccccc2)CC1 | inconclusive: 34.9%
5 | O=C(C1CCCN(S(=O)(=O)c2cccc3nonc23)C1)N1CCN(c2ccccc2)CC1 (stereo not given) | inconclusive: 39%
6 | O=C(Cc1c(C(=O)O)[nH]c2ccc(Cl)cc12)Nc1ccc2c(c1)OCCO2 | inconclusive: 43%
7 | CC(C)(C)NCC(O)COc1ccc(Br)cc1 (stereo not given) | inconclusive: 51.8%
8 | C=CCN1C=C2C(=O)C(C)(OC(=O)CCC(=O)OC)C(=O)C(Br)=C2C=C1c1ccc(OC)cc1 (stereo not given) | inconclusive: 59%
9 | CCCN1C(=O)/C(=C2\SC(=S)N(c3c(C)n(C)n(-c4ccccc4)c3=O)C2=O)c2ccccc21 | inconclusive: 51.7%
10 | O=C(NCc1ccco1)c1cc(-c2ccc(Cl)cc2)on1 | inconclusive: 44.1%
11 | Cc1cc(N2CCOCC2)nc(N)n1 | inconclusive: 39.8%
12 | CC1CCN(c2[nH]c(=S)c(C#N)c3c2CCCC3)CC1 | inconclusive: 44.4%
13 | CCC(OC(=O)c1ccco1)C(=O)NCc1ccc(C)cc1 (stereo not given) | inconclusive: 55.8%
14 | Cc1ccsc1CN1CCC(C(=O)NCc2ccccc2Cl)CC1 | inconclusive: 61.1%
15 | NC(=S)Nc1cc2ccccc2c2ccccc12 | inconclusive: 36.7%
16 | O=C1C2C3C=CC(C3)C2C(=O)N1CCCCN1C(=O)C2C3C=CC(C3)C2C1=O (stereo not given) | inconclusive: 43.4%
17 | CCc1nnc(NC(=O)c2ccc(S(=O)(=O)N3CCCCCC3)cc2)s1 | inconclusive: 19.1%
18 | Cn1c(CNc2ccccc2O)nc2ccccc21 | inactive: 17.5%
19 | Cc1cc(C(=O)N/N=C/c2c(C)nn(-c3ccccc3)c2C)n[nH]1 | inconclusive: 48.1%
20 | COc1ccc(NC(=O)c2ccc(S(=O)(=O)N3CCCC3)cc2)cc1OC | inconclusive: 54.2%
21 | COc1ccc(C2C3=C(CCCC3=O)Nc3nc(C(F)(F)F)nn32)cc1OC (stereo not given) | inconclusive: 41%
22 | COc1ccc(CCNc2nc(C)c(C(C)=O)s2)cc1OC | inconclusive: 40.8%
23 | Cc1cc(C)c(NS(=O)(=O)c2ccc(NC(=O)c3cccs3)cc2)c(C)c1 | inconclusive: 33.3%
24 | Cc1cc([N+](=O)[O-])c(C)cc1-c1ccc(/C=N/n2cnnc2)o1 | inactive: 1.64%
25 | CC(NC(=O)COc1ccccc1Cl)c1ccccc1 (stereo not given) | inactive: -5.9%

Taken from the entries so far (2 entries):
Row | SMILES | inhibition
1 | Cc1ccccc1N=C1c2cc([N+](=O)[O-])ccc2-c2ncccc21 | inconclusive: 35.3%
2 | NS(=O)(=O)c1ccc(CCNC(=O)CCCNC(=O)c2ccc(Cl)cc2)cc1 | inconclusive: 53%
